Measurements reported in patent US20170363612A1, “COMPOSITIONS AND METHODS RELATING TO PROLIFERATIVE DISORDERS” (Wayne State University, priority 2014, published 2017).
Where “and” joins values, the source holds several entries; their conditions need not be identical. Equal values may be shown once. For at least one compound, name, drawing or mass did not settle the structure. Some entries share one result that the patent states for a list of compounds.

What was measured:
[1] = tested on: SET Ribosome; assay: TPA Reference Standard Response Modifier Assay with ribosome binding translation inhibitors, HEK293 hTRdm-fLUC#13; assay type: cell-based, human; settings: for fLUC activity compared to the untreated control: 6 hr
[2] = tested on: Cap-Dependent translation; assay: Translation inhibitor treatment of HEK293 CMV#3 line; assay type: cell-based, human; settings: same treatments as SET assay

Row | Compound | doses with SET Blocking activity ([1]; with 100 nM TPA, FIG. 10B) | fLUC activity compared to the untreated control ([1]; 500 nM anisomycin + 100 nM TPA) [%] | fLUC activity compared to the untreated control ([1]; 1 uM anisomycin + 100 nM TPA) [%] | IC100 dose ([1]; with 100 nM TPA) | IC100 (100% SET Ribosome inhibition) ([1]; with 100 nM TPA, 6 hours) [µM] | IC50 ([1]; with 100 nM TPA, 6 hours, read-out: IC50, SET ribosome inhibition) | doses completely blocking SET ribosome activity ([1]; with 100 nM TPA, FIG. 10B) [nM] | effect on Cap-Dependent translation [2]
1 | C[C@@H]1C[C@@H]([C@H](O)CC2CC(=O)NC(=O)C2)C(=O)[C@@H](C)C1 [cycloheximide] | above 2.5 uM | – | – | – | – | – | – | –
2 | COc1ccc(C[C@H]2NC[C@H](O)[C@H]2OC(C)=O)cc1 [anisomycin, (2R,3S,4S)-4-hydroxy-2-(4-methoxybenzyl)-pyrrolidin-3-yl acetate] | – | 98 | 87 | 500 nM-1 μM | 1 | ~35 nM and < 50 nM | > 500 | minimal effect
